Taken from: PubChem BioAssay AID1224830 (NIAID, 2016)
Purpose: 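Host factors that control LPS-induced TNF expression in human macrophages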 (primary screen). Cell system: human THP-1 monocytic leukaemia cells, TNF dual-luciferase reporter clone, PMA-differentiated to macrophage-like cells. Knock-down reagent: siRNA pool against human genes, 50 nM. Duration: LPS for 4 h, given about 3 days after siRNA transfection. Conditions: bacterial LPS (TLR4 ligand), 10 ng/ml. Detection: 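TNF firefly reporter luminescence divided by renilla, normalised to the plate median, then turned into a robust z-score for each replicate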. Reading the numbers: TNF reporter robust z-score: higher = stronger TNF reporter response to LPS. Active means: 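a well is active when its z-score exceeds 2.8 or falls below -1.5; control wells carry no call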.
The deposit covers about 18,000 reagents; shown is a random part of them. About 2,900 of all reagents (16%) were called active. 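Calls are made per well; low scores hint the gene aids the LPS response, high scores that it dampens it.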 Repeated entries: four replicate wells of each siRNA pool.

Target gene	PubChem SID	TNF reporter robust z-score	outcome
SLC25A27	SID315453321	0.03	inactive
SLC25A27	SID315453321	-0.16	inactive
SLC25A27	SID315453321	-1.77	active
SLC25A27	SID315453321	-1.34	inactive
H2AC1	SID315463308	-0.63	inactive
H2AC1	SID315463308	-0.39	inactive
H2AC1	SID315463308	-0.77	inactive
H2AC1	SID315463308	0.15	inactive
TMEM154	SID315463090	-0.18	inactive
TMEM154	SID315463090	-0.59	inactive
TMEM154	SID315463090	-0.88	inactive
TMEM154	SID315463090	-0.55	inactive
LPL	SID315449796	-0.83	inactive
LPL	SID315449796	-0.65	inactive
LPL	SID315449796	-0.01	inactive
LPL	SID315449796	0.92	inactive
SNTG2	SID315456981	-0.12	inactive
SNTG2	SID315456981	-0.2	inactive
SNTG2	SID315456981	0.85	inactive
SNTG2	SID315456981	0.74	inactive
GPRC5D	SID315457656	-1.15	inactive
GPRC5D	SID315457656	-0.08	inactive
GPRC5D	SID315457656	-1.16	inactive
GPRC5D	SID315457656	-0.74	inactive
SIM2	SID315451434	-0.78	inactive
SIM2	SID315451434	-0.82	inactive
SIM2	SID315451434	-0.55	inactive
SIM2	SID315451434	-0.27	inactive
CSTF3	SID315448156	0.35	inactive
CSTF3	SID315448156	0.7	inactive
CSTF3	SID315448156	0.88	inactive
CSTF3	SID315448156	2.2	inactive

Entries listed above called active:
Target gene	PubChem SID	TNF reporter robust z-score	outcome
SLC25A27	SID315453321	-1.77	active

The list goes on:
Target gene	PubChem SID	TNF reporter robust z-score	outcome
KLF8	SID315454739	0.91	inactive
KLF8	SID315454739	2.41	inactive
KLF8	SID315454739	0.21	inactive
KLF8	SID315454739	1.57	inactive
UQCC3	SID315465223	0.96	inactive
UQCC3	SID315465223	1.62	inactive
UQCC3	SID315465223	1.15	inactive
UQCC3	SID315465223	1.96	inactive
TANGO2	SID315461824	3.05	active
TANGO2	SID315461824	2.69	inactive
TANGO2	SID315461824	2.15	inactive
TANGO2	SID315461824	0.08	inactive
ACTL7B	SID315454422	0.45	inactive
ACTL7B	SID315454422	-0.23	inactive
ACTL7B	SID315454422	0.69	inactive
ACTL7B	SID315454422	1.34	inactive
HLA-C	SID315449202	0.75	inactive
HLA-C	SID315449202	0.62	inactive
HLA-C	SID315449202	0.71	inactive
HLA-C	SID315449202	-0.17	inactive
PAEP	SID315450407	0.41	inactive
PAEP	SID315450407	-0.17	inactive
PAEP	SID315450407	1.51	inactive
PAEP	SID315450407	-0.49	inactive
LRRC25	SID315461706	1.14	inactive
LRRC25	SID315461706	0.64	inactive
LRRC25	SID315461706	-0.42	inactive
LRRC25	SID315461706	-0.63	inactive
ADARB1	SID315447183	-1.09	inactive
ADARB1	SID315447183	-0.77	inactive
ADARB1	SID315447183	-1.39	inactive
ADARB1	SID315447183	-0.26	inactive
CDH19	SID315456069	-0.44	inactive
CDH19	SID315456069	0.45	inactive
CDH19	SID315456069	-0.25	inactive
EXOSC5	SID315458157	-0.95	inactive
EXOSC5	SID315458157	0.41	inactive
EXOSC5	SID315458157	-1.12	inactive
EXOSC5	SID315458157	-0.25	inactive
SLITRK6	SID315460232	-0.42	inactive
SLITRK6	SID315460232	0.33	inactive
SLITRK6	SID315460232	0.15	inactive
SLITRK6	SID315460232	1.04	inactive
